# Values quoted from earlier work, collected in patent US6068858A, “Methods of making nanocrystalline formulations of human immunodeficiency virus (HIV) protease inhibitors using cellulosic surface stabilizers” (Elan Pharma International Limited, priority 1999, dated 2000).
# At least one compound was matched to its structure with a doubt left.
# Test system: HIV RT
# Conditions: background statement
smiles,measurement,value
"Cc1cn([C@H]2C[C@H](N=[N+]=[N-])[C@@H](CO)O2)c(=O)[nH]c1=O [AZT, azidothymidine]",effectiveness in treating HIV infection,only modestly effective
